Measurements reported in PubChem BioAssay AID1159584 (Peter MacCallum Cancer Centre, 2016)

Screen: 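Genes that CDH1-null MCF10A cells selectively depend on to survive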 (primary screen)
Cells: human MCF10A breast epithelial cells, parental and CDH1-null
Knock-down reagent: siRNA against human genes
Measurement: 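Cell viability by CellTiter-Glo ATP luminescence, each line scaled to the mean of mock wells across plates, then CDH1-null over parental ratio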
Direction: CDH1-null / parental viability ratio: higher = CDH1-null cells survive relatively better than parental
In all, the deposit lists about 18,000 reagents; this is an unselected part. Not all columns of the deposit are shown. Reagent sequences are not shown. Not given: the amount of reagent, the time to read-out.

SF3B1 (splicing factor 3b subunit 1): CDH1-null / parental viability ratio = 1.08
PLAAT5 (phospholipase A and acyltransferase 5): CDH1-null / parental viability ratio = 0.96
TSPAN8 (tetraspanin 8): CDH1-null / parental viability ratio = 1.74
MYL3 (myosin light chain 3): CDH1-null / parental viability ratio = 0.89
DRD1 (dopamine receptor D1): CDH1-null / parental viability ratio = 0.8
ZNF586 (zinc finger protein 586): CDH1-null / parental viability ratio = 1.41
GUCY1A2 (guanylate cyclase 1 soluble subunit alpha 2): CDH1-null / parental viability ratio = 0.94
PPP1R16B (protein phosphatase 1 regulatory subunit 16B): CDH1-null / parental viability ratio = 1.44
FST (follistatin): CDH1-null / parental viability ratio = 1.07
OCRL (OCRL inositol polyphosphate-5-phosphatase): CDH1-null / parental viability ratio = 1.17
LILRA3 (leukocyte immunoglobulin like receptor A3): CDH1-null / parental viability ratio = 1.37
ADAM33 (ADAM metallopeptidase domain 33): CDH1-null / parental viability ratio = 1.33
RGS16 (regulator of G protein signaling 16): CDH1-null / parental viability ratio = 1.09
ARHGAP6 (Rho GTPase activating protein 6): CDH1-null / parental viability ratio = 0.99
RCOR2 (REST corepressor 2): CDH1-null / parental viability ratio = 1.2
CLVS1 (clavesin 1): CDH1-null / parental viability ratio = 0.86
ME1 (malic enzyme 1): CDH1-null / parental viability ratio = 1.08

Targets above whose gene name begins with P or p:
PLAAT5 (phospholipase A and acyltransferase 5): CDH1-null / parental viability ratio = 0.96
PPP1R16B (protein phosphatase 1 regulatory subunit 16B): CDH1-null / parental viability ratio = 1.44

The listing continues.
ZNF417 (zinc finger protein 417): CDH1-null / parental viability ratio = 0.98
C3orf22 (chromosome 3 open reading frame 22): CDH1-null / parental viability ratio = 1.09
PDE12 (phosphodiesterase 12): CDH1-null / parental viability ratio = 1.09
EPHB4 (EPH receptor B4): CDH1-null / parental viability ratio = 0.79
FRZB (frizzled related protein): CDH1-null / parental viability ratio = 1
TLN2 (talin 2): CDH1-null / parental viability ratio = 0.66
LHFPL2 (LHFPL tetraspan subfamily member 2): CDH1-null / parental viability ratio = 1.1
KRT23 (keratin 23): CDH1-null / parental viability ratio = 0.95
MAGEA8 (MAGE family member A8): CDH1-null / parental viability ratio = 1.32
MARVELD2 (MARVEL domain containing 2): CDH1-null / parental viability ratio = 1.15
FBXO28 (F-box protein 28): CDH1-null / parental viability ratio = 1.02
TBL1X (transducin beta like 1 X-linked): CDH1-null / parental viability ratio = 1.27
MSX1 (msh homeobox 1): CDH1-null / parental viability ratio = 1.01
NLRP2 (NLR family pyrin domain containing 2): CDH1-null / parental viability ratio = 0.96
CHTF8 (chromosome transmission fidelity factor 8): CDH1-null / parental viability ratio = 1.48
DNASE2B (deoxyribonuclease 2 beta): CDH1-null / parental viability ratio = 0.95
TECR (trans-2,3-enoyl-CoA reductase): CDH1-null / parental viability ratio = 1.1
OR8B8 (olfactory receptor family 8 subfamily B member 8): CDH1-null / parental viability ratio = 1.05
